Some entries share one result that the patent states for a list of compounds.
system: six bacteria strains; experiment: MIC, summary statements over the panel of tested bacteria; format: cell-based
Experimental: Minimum Inhibitory Concentrations (MICs) against Bacteria. The antimicrobial activity of the compounds was tested on the following six bacteria strains: K. pneumoniae (ATCC 13383), P. aeruginosa (ATCC27853), E. coli (ATCC 25922), vancomycin-resistant Enterococcus faecalis (ATCC 700802), Methicillin-resistant S. aureus (MRSA, ATCC 33591), Methicillin-resistant S. epidermidis (MRSE, RP62A). The procedures were followed as reported previously (Hancock et al., Immunobiology 2006, 211, 315-322). Briefly, a single colony of each bacterium was inoculated in 3 mL TSB medium and incubated overnight at 37° C. Then the bacteria culture was diluted at 1:100 and the bacteria were allowed to grow to mid-logarithmic phase. Next, 50 μL of 2-fold serial dilutions of compounds (0.1-25 μg/mL) were added the 96-well plate containing aliquots of 50 μL of bacteria suspension (1×10^6 CFU/mL) in each well. The mixture was incubated at 37° C. for 16 h, and their absorption at 600 nm wavelength was read on a Biotek Synergy HT microtiter plate reader. […] The experiments were repeated at least three times with duplicates each time. HC50 means the concentration causing 50% hemolysis.

SMILES	antibacterial activity against the tested bacteria (in words)
N=C1N(CC(=O)Nc2ccc(NC(=O)CN3C[C@H](Cc4ccccc4)N(CCCC4CCCCC4)C3=N)cc2)C[C@H](Cc2ccccc2)N1CCCC1CCCCC1 [Compound 19]	did not yield compounds with more potent and broad-spectrum activity
N=C1N(CC(=O)Nc2cccc(NC(=O)CN3C[C@H](Cc4ccccc4)N(CCCC4CCCCC4)C3=N)c2)C[C@H](Cc2ccccc2)N1CCCC1CCCCC1 [Compound 20]	did not yield compounds with more potent and broad-spectrum activity
N=C1N(CC(=O)Nc2ccc(NC(=O)CN3C[C@H](Cc4ccccc4)N(CCC45CC6CC(CC(C6)C4)C5)C3=N)cc2)C[C@H](Cc2ccccc2)N1CCC12CC3CC(CC(C3)C1)C2 [Compound 21]	did not yield compounds with more potent and broad-spectrum activity
N=C1N(CC(=O)Nc2cccc(NC(=O)CN3C[C@H](Cc4ccccc4)N(CCC45CC6CC(CC(C6)C4)C5)C3=N)c2)C[C@H](Cc2ccccc2)N1CCC12CC3CC(CC(C3)C1)C2 [Compound 22]	did not yield compounds with more potent and broad-spectrum activity
